Assay results published in patent US20250283871A1, “COMPOSITIONS AND METHODS FOR MODULATING THE INTERACTION BETWEEN SS18-SSX FUSION ONCOPROTEIN AND NUCLEOSOMES” (Dana-Farber Cancer Institute, Inc., priority 2020, published 2025).

Test system: BAF complex subunits and histone proteins
Assay: Mass spectrometry proteomics of purified HA-SS18 WT and HA-SS18-SSX1 complexes (Tables 5A-5E)
Design: species or system human
Settings: HEK-293T; for Total (total peptides) / Unique (unique peptides): HA-SS18SSX1 purification, NE (soluble nuclear extract) fraction, peptides per identified protein
[1] = HA-SS18WT_NE_peptides: HA-SS18 WT complexes purified from nuclear extract (NE), label = protein identified (Gene Symbol)
[2] = HA-SS18WT_NE_peptides: proteins co-purified with HA-SS18 WT from nuclear extract (NE)

Row | Molecule | Total (total peptides) | Unique (unique peptides) | Total (peptides) [1] | Unique (peptides) [1] | Total (peptides) [2] | Unique (peptides) [2]
1 | ERAL1 (protein, UniProt O75616 44-437, looked up) GTPase Era, mitochondrial: VSCVAGSAFSGPRLASASRSNGQGSALDHFLGFSQPDSSVTPCVPAVSMNRDEQDVLLVHHPDMPENSRVLRVVLLGAPNAGKSTLSNQLLGRKVFPVSRKVHTTRCQALGVITEKETQVILLDTPGIISPGKQKRHHLELSLLEDPWKSMESADLVVVLVDVSDKWTRNQLSPQLLRCLTKYSQIPSVLVMNKVDCLKQKSVLLELTAALTEGVVNGKKLKMRQAFHSHPGTHCPSPAVKDPNTQSVGNPQRIGWPHFKEIFMLSALSQEDVKTLKQYLLTQAQPGPWEYHSAVLTSQTPEEICANIIREKLLEHLPQEVPYNVQQKTAVWEEGPGGELVIQQKLLVPKESYVKLLIGPKGHVISQIAQEAGHDLMDIFLCDVDIRLSVKLLK | 3 | 3 | 4 | 4 |  | 
2 | SRPRB (protein, UniProt Q9Y5M8 1-271, looked up) Signal recognition particle …: MASADSRRVADGGGAGGTFQPYLDTLRQELQQTDPTLLSVVVAVLAVLLTLVFWKLIRSRRSSQRAVLLVGLCDSGKTLLFVRLLTGLYRDTQTSITDSCAVYRVNNNRGNSLTLIDLPGHESLRLQFLERFKSSARAIVFVVDSAAFQREVKDVAEFLYQVLIDSMGLKNTPSFLIACNKQDIAMAKSAKLIQQQLEKELNTLRVTRSAAPSTLDSSSTAPAQLGKKGKEFEFSQLPLKVEFLECSAKGGRGDVGSADIQDLEKWLAKIA | 3 | 3 | 3 | 3 |  | 
3 | ATP2B4 (protein) MTNPSDRVLPANSMAESREGDFGCTVMELRKLMELRSRDALTQINVHYGGVQNLCSRLKTSPVEGLSGNPADLEKRRQVFGHNVIPPKKPKTFLELVWEALQDVTLIILEIAAIISLVLSFYRPAGEENELCGQVATTPEDENEAQAGWIEGAAILFSVIIVVLVTAFNDWSKEKQFRGLQCRIEQEQKFSIIRNGQLIQLPVAEIVVGDIAQVKYGDLLPADGILIQGNDLKIDESSLTGESDHVKKSLDKDPMLLSGTHVMEGSGRMVVTAVGVNSQTGIILTLLGVNEDDEGEKKKKGKKQGVPENRNKAKTQDGVALEIQPLNSQEGIDNEEKDKKAVKVPKKEKSVLQGKLTRLAVQIGKAGLLMSALTVFILILYFVIDNFVINRRPWLPECTPIYIQYFVKFFIIGITVLVVAVPEGLPLAVTISLAYSVKKMMKDNNLVRHLDACETMGNATAICSDKTGTLTMNRMTVVQAYIGGIHYRQIPSPDVFLPKVLDLIVNGISINSAYTSKILPPEKEGGLPRQVGNKTECALLGFVTDLKQDYQAVRNEVPEEKLYKVYTFNSVRKSMSTVIRNPNGGFRMYSKGASEIILRKCNRILDRKGEAVPFKNKDRDDMVRTVIEPMACDGLRTICIAYRDFDDTEPSWDNENEILTELTCIAVVGIEDPVRPEVPDAIAKCKQAGITVRMVTGDNINTARAIATKCGILTPGDDFLCLEGKEFNRLIRNEKGEVEQEKLDKIWPKLRVLARSSPTDKHTLVKGIIDSTVGEHRQVVAVTGDGTNDGPALKKADVGFAMGIAGTDVAKEASDIILTDDNFTSIVKAVMWGRNVYDSISKFLQFQLTVNVVAVIVAFTGACITQDSPLKAVQMLWVNLIMDTFASLALATEPPTESLLKRRPYGRNKPLISRTMMKNILGHAFYQLIVIFILVFAGEKFFDIDSGRKAPLHSPPSQHYTIVFNTFVLMQLFNEINSRKIHGEKNVFSGIYRNIIFCSVVLGTFICQIFIVEFGGKPFSCTSLSLSQWLWCLFIGIGELLWGQFISAIPTRSLKFLKEAGHGTTKEEITKDAEGLDEIDHAEMELRRGQILWFRGLNRIQTQIDVINTFQTGASFKGVLRRQNMGQHLDVKLVPSSSYIKVVKAFHSSLHESIQKPYNQKSIHSFMTHPEFAIEEELPRTPLLDEEEEENPDKASKFGTRVLLLDGEVTPYANTNNNAVDCNQVQLPQSDSSLQSLETSV | 3 | 3 | 2 | 2 |  | 
4 | SLIT2 (protein, UniProt O94813 31-1529, looked up) Slit homolog 2 protein: QCSCSGSTVDCHGLALRSVPRNIPRNTERLDLNGNNITRITKTDFAGLRHLRVLQLMENKISTIERGAFQDLKELERLRLNRNHLQLFPELLFLGTAKLYRLDLSENQIQAIPRKAFRGAVDIKNLQLDYNQISCIEDGAFRALRDLEVLTLNNNNITRLSVASFNHMPKLRTFRLHSNNLYCDCHLAWLSDWLRQRPRVGLYTQCMGPSHLRGHNVAEVQKREFVCSGHQSFMAPSCSVLHCPAACTCSNNIVDCRGKGLTEIPTNLPETITEIRLEQNTIKVIPPGAFSPYKKLRRIDLSNNQISELAPDAFQGLRSLNSLVLYGNKITELPKSLFEGLFSLQLLLLNANKINCLRVDAFQDLHNLNLLSLYDNKLQTIAKGTFSPLRAIQTMHLAQNPFICDCHLKWLADYLHTNPIETSGARCTSPRRLANKRIGQIKSKKFRCSAKEQYFIPGTEDYRSKLSGDCFADLACPEKCRCEGTTVDCSNQKLNKIPEHIPQYTAELRLNNNEFTVLEATGIFKKLPQLRKINFSNNKITDIEEGAFEGASGVNEILLTSNRLENVQHKMFKGLESLKTLMLRSNRITCVGNDSFIGLSSVRLLSLYDNQITTVAPGAFDTLHSLSTLNLLANPFNCNCYLAWLGEWLRKKRIVTGNPRCQKPYFLKEIPIQDVAIQDFTCDDGNDDNSCSPLSRCPTECTCLDTVVRCSNKGLKVLPKGIPRDVTELYLDGNQFTLVPKELSNYKHLTLIDLSNNRISTLSNQSFSNMTQLLTLILSYNRLRCIPPRTFDGLKSLRLLSLHGNDISVVPEGAFNDLSALSHLAIGANPLYCDCNMQWLSDWVKSEYKEPGIARCAGPGEMADKLLLTTPSKKFTCQGPVDVNILAKCNPCLSNPCKNDGTCNSDPVDFYRCTCPYGFKGQDCDVPIHACISNPCKHGGTCHLKEGEEDGFWCICADGFEGENCEVNVDDCEDNDCENNSTCVDGINNYTCLCPPEYTGELCEEKLDFCAQDLNPCQHDSKCILTPKGFKCDCTPGYVGEHCDIDFDDCQDNKCKNGAHCTDAVNGYTCICPEGYSGLFCEFSPPMVLPRTSPCDNFDCQNGAQCIVRINEPICQCLPGYQGEKCEKLVSVNFINKESYLQIPSAKVRPQTNITLQIATDEDSGILLYKGDKDHIAVELYRGRVRASYDTGSHPASAIYSVETINDGNFHIVELLALDQSLSLSVDGGNPKIITNLSKQSTLNFDSPLYVGGMPGKSNVASLRQAPGQNGTSFHGCIRNLYINSELQDFQKVPMQTGILPGCEPCHKKVCAHGTCQPSSQAGFTCECQEGWMGPLCDQRTNDPCLGNKCVHGTCLPINAFSYSCKCLEGHGGVLCDEEEDLFNPCQAIKCKHGKCRLSGLGQPYCECSSGYTGDSCDREISCRGERIRDYYQKQQGYAACQTTKKVSRLECRGGCAGGQCCGPLRSKRRKYSFECTDGSSFVDEVEKVVKCGCTRCVS | 3 | 3 | 3 | 3 |  | 
5 | DHRS7B (protein, UniProt Q6IAN0 1-325, looked up) Dehydrogenase/reductase SDR …: MVSPATRKSLPKVKAMDFITSTAILPLLFGCLGVFGLFRLLQWVRGKAYLRNAVVVITGATSGLGKECAKVFYAAGAKLVLCGRNGGALEELIRELTASHATKVQTHKPYLVTFDLTDSGAIVAAAAEILQCFGYVDILVNNAGISYRGTIMDTTVDVDKRVMETNYFGPVALTKALLPSMIKRRQGHIVAISSIQGKMSIPFRSAYAASKHATQAFFDCLRAEMEQYEIEVTVISPGYIHTNLSVNAITADGSRYGVMDTTTAQGRSPVEVAQDVLAAVGKKKKDVILADLLPSLAVYLRTLAPGLFFSLMASRARKERKSKNS | 3 | 3 | 3 | 3 |  | 
6 | SLC3A2 (protein, UniProt P08195 1-630, looked up) Amino acid transporter heavy …: MELQPPEASIAVVSIPRQLPGSHSEAGVQGLSAGDDSELGSHCVAQTGLELLASGDPLPSASQNAEMIETGSDCVTQAGLQLLASSDPPALASKNAEVTGTMSQDTEVDMKEVELNELEPEKQPMNAASGAAMSLAGAEKNGLVKIKVAEDEAEAAAAAKFTGLSKEELLKVAGSPGWVRTRWALLLLFWLGWLGMLAGAVVIIVRAPRCRELPAQKWWHTGALYRIGDLQAFQGHGAGNLAGLKGRLDYLSSLKVKGLVLGPIHKNQKDDVAQTDLLQIDPNFGSKEDFDSLLQSAKKKSIRVILDLTPNYRGENSWFSTQVDTVATKVKDALEFWLQAGVDGFQVRDIENLKDASSFLAEWQNITKGFSEDRLLIAGTNSSDLQQILSLLESNKDLLLTSSYLSDSGSTGEHTKSLVTQYLNATGNRWCSWSLSQARLLTSFLPAQLLRLYQLMLFTLPGTPVFSYGDEIGLDAAALPGQPMEAPVMLWDESSFPDIPGAVSANMTVKGQSEDPGSLLSLFRRLSDQRSKERSLLHGDFHAFSAGPGLFSYIRHWDQNERFLVVLNFGDVGLSAGLQASDLPASASLPAKADLLLSTQPGREEGSPLELERLKLEPHEGLLLRFPYAA | 3 | 3 |  |  | 2 | 2
7 | GK (protein, UniProt P32189 1-559, looked up) Glycerol kinase: MAASKKAVLGPLVGAVDQGTSSTRFLVFNSKTAELLSHHQVEIKQEFPREGWVEQDPKEILHSVYECIEKTCEKLGQLNIDISNIKAIGVSNQRETTVVWDKITGEPLYNAVVWLDLRTQSTVESLSKRIPGNNNFVKSKTGLPLSTYFSAVKLRWLLDNVRKVQKAVEEKRALFGTIDSWLIWSLTGGVNGGVHCTDVTNASRTMLFNIHSLEWDKQLCEFFGIPMEILPNVRSSSEIYGLMKISHSVKAGALEGVPISGCLGDQSAALVGQMCFQIGQAKNTYGTGCFLLCNTGHKCVFSDHGLLTTVAYKLGRDKPVYYALEGSVAIAGAVIRWLRDNLGIIKTSEEIEKLAKEVGTSYGCYFVPAFSGLYAPYWEPSARGIICGLTQFTNKCHIAFAALEAVCFQTREILDAMNRDCGIPLSHLQVDGGMTSNKILMQLQADILYIPVVKPSMPETTALGAAMAAGAAEGVGVWSLEPEDLSAVTMERFEPQINAEESEIRYSTWKKAVMKSMGWVTTQSPESGDPSIFCSLPLGFFIVSSMVMLIGARYISGIP | 3 | 3 | 3 | 3 |  | 
8 | TAMM41 (protein, UniProt Q96BW9 1-452, looked up) Phosphatidate …: MALQTLQSSWVTFRKILSHFPEELSLAFVYGSGVYRQAGPSSDQKNAMLDFVFTVDDPVAWHSKNLKKNWSHYSFLKVLGPKIITSIQNNYGAGVYYNSLIMCNGRLIKYGVISTNVLIEDLLNWNNLYIAGRLQKPVKIISVNEDVTLRSALDRNLKSAVTAAFLMLPESFSEEDLFIEIAGLSYSGDFRMVVGEDKTKVLNIVKPNIAHFRELYGSILQENPQVVYKSQQGWLEIDKSPEGQFTQLMTLPKTLQQQINHIMDPPGKNRDVEETLFQVAHDPDCGDVVRLGLSAIVRPSSIRQSTKGIFTAGKSFGNPCVTYLLTEWLPHSWLQCKALYLLGACEMLSFDGHKLGYCSKVQTGITAAEPGGRTMSDHWQCCWKLYCPSEFSETLPVCRVFPSYCFIYQSYRCIGLQKQQHLCSPSSSPSLRQLLPSVLVGYFCCYCHFSKW | 3 | 3 | 4 | 4 |  | 
